Source: article PMC7862700
This is a selection; strong and weak results do not stand in their true shares. At the low end of the ranking, values are background and their order means little.

Columns and labels:
FEV = molecular target: T1, FEV (UniProt Q99581); assay: DAPPL (digital affinity profiling via proximity ligation, sequencing); settings: 10 mM Tris-HCl pH 7.5, 50 mM NaCl, 1 mM DTT, 4% glycerol, room temperature, 30 min; GST-TFs on glutathione beads, 16-mer random dsDNA library, 0.1% …; high values mean tight binding; double strand, one strand shown; scale: fold enrichment (6-mer frequency, TF over GST control)
T1 sequence: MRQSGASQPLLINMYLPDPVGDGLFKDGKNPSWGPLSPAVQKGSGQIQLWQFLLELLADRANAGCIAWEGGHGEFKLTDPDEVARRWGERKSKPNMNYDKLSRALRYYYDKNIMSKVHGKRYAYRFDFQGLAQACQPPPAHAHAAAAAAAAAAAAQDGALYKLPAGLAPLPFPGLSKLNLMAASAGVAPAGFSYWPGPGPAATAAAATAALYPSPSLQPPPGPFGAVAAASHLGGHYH

ELF5 = molecular target: T2, ELF5 (UniProt Q9UKW6-2); assay: as above; settings: 10 mM Tris-HCl pH 7.5, 50 mM NaCl, 1 mM DTT, 4% glycerol, room temperature, 30 min; GST-TFs on glutathione beads, 16-mer random dsDNA library, 0.1% …; high values mean tight binding; double strand, one strand shown; scale: fold enrichment (6-mer frequency, TF over GST control)
T2 sequence: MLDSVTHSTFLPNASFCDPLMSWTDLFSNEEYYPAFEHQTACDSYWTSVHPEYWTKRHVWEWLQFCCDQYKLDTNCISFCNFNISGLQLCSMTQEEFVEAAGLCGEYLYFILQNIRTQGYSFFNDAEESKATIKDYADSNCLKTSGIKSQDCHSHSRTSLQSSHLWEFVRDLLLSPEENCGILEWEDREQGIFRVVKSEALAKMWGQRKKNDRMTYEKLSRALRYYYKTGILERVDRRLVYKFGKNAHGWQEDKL

| Sequence | binding signal (FEV) | binding signal (ELF5) |
| --- | --- | --- |
| CTGCAT | 1.54 | 1.29 |
| TCAAGA | 0.757 | 0.846 |
| TTGTAG | 1.02 | 1.1 |
| TGATCA | 0.982 | 0.985 |
| AGATCT | 0.924 | 0.934 |
| GATCAC | 0.95 | 0.9 |
| TTTAGT | 0.915 | 0.947 |
| ATGAAG | 0.939 | 0.987 |
| GATAAC | 0.984 | 0.948 |
| GATTTA | 0.968 | 0.958 |
| CATTAG | 0.881 | 0.928 |
| CCTAAG | 1.14 | 1.11 |
| ATCGCT | 1.06 | 1.05 |
| GTTATA | 0.972 | 0.96 |
| CCGACT | 1.52 | 1.41 |
| GTTAAA | 0.991 | 0.961 |
| TTAGCC | 0.987 | 0.97 |
| TTTGAT | 1.17 | 1.26 |
| AAAGTC | 0.925 | 0.982 |
| AGAACT | 0.916 | 0.946 |
| AGAAGA | 0.837 | 0.866 |
| GATCTG | 0.939 | 0.921 |

Whole records, quoted from the list. Values in the order: binding signal (FEV)	binding signal (ELF5)
TGATCA as listed: 0.982	0.985
TTAGCC as listed: 0.987	0.97
